# Measured values: US20260284208A1, “SYSTEM” (Oxford University Innovation Limited, priority 2023, published 2026)
# The source gives many values for each of these; only a part stands here.
# System: library of 8,380 IKZF3 degrons (ZF-eGFP/mCherry reporter) in Jurkat cells
# Assay: Pooled library screen (FACS, NGS, limma voom LogFC of positive vs negative read counts)
# Type: cell-based, human
# Experimental: A library of 8,380 IKZF3 degrons was cloned into pLVX-Sprout to create the eGFP/mCherry protein degradation reporter plasmid pool. A lentivirus pool was then generated using the Lenti-X lentiviral vector production method.
# Jurkat cells were transduced at a multiplicity of infection of <0.3 with the lentivirus vector library in order to maximise the number of cells with a single integration. Transductions were carried out in 6 well TC-treated cell culture dishes (Falcon) with 3×10^6 cells per well. Cells were incubated for 2 days at 37° C. and 5% CO2 before the supernatant was removed and replaced with fresh media. 6 days post-transduction, mCherry+ cells were isolated via FACS using the FACS Aria Fusion (BD) in a buffer containing PBS (Gibco), 2 mM EDTA (Gibco), 25 mM HEPES (Sigma) and 1% BSA (Sigma). 8 days later, cells were treated with DMSO or a thalidomide analog for 18 hours at 37° C. and 5% CO2. mCherry+GFPlow and NOT(mCherry+GFPlow) cells were sorted by FACS using the FACS Aria Fusion (BD). DMSO treated cells were used to set the mCherry+GFPlow gate and dead cells were excluded from sorting by staining cells with 1 μg/mL DAPI (ThermoFisher). gDNA was isolated using the Maxwell RSC 48 (Promega). gDNA from cells that were unsorted and untreated were also isolated to determine the library representation on the day of compound treatment. Throughout the screen >600× coverage of the library was maintained. 3 biological replicates were carried out with a new transduction taking place each time.
# A two-step PCR was used where the first PCR (PCR1) amplified the integrated degron sequence from gDNA and the second PCR (PCR2) added Illumina adaptors and barcodes to permit multiplexing. See Supp F for PCR1 and PCR2 primers. Q5 Hot Start High-Fidelity 2× Master Mix (New England Biolabs) was used for both PCRs. Sufficient gDNA was amplified in PCR1 in order to maintain >600× coverage and amplicons were purified using solid phase reversible immobilization (SPRI) beads (Beckman Coulter). Purified PCR1 products were analysed on the Tapestation 4200 (Agilent) to confirm purity prior to proceeding to PCR2. Sufficient PCR1 product was amplified in PCR2 in order to maintain >600× coverage and amplicons were run on a 2% agarose TAE gel. Target bands were excised and purified using the NucleoSpin Gel and PCR Clean-up Kit (Machery Nagel). Amplicons were analysed on the Tapestation 4200 and quantified using Qubit dsDNA HS kit (ThermoFisher). PCR products were pooled and sequenced as paired-reads on the NovaSeq (Illumina) using a SP2 200 cycles kit (Illumina).
# Count distributions, percentage of read mapping, library coverage and replicate correlation per sample were assessed for QC purposes.
# To carry out the library screen, we used the same plasmid construct as in our earlier flow cytometry assays, but pooling all 8,380 mutants together into one Jurkat population, ensuring a copy number of one plasmid per cell (FIG. 4B). […] These GFP-negative cells were then separated from the remaining GFP-positive population using fluorescence activated cell sorting (FACS). These two populations were then sequenced and the relative abundance of every mutant in both populations compared to provide a log FC value for each mutant sequence. This value indicated how frequently a sequence is observed in the GFP-negative population relative to the GFP-positive population, and therefore how effective a degron it is for that particular IMID compound.
structure (smiles),measurement,setting,value
O=C1CCC(N2C(=O)c3ccc(N4CCOCC4)cc3C2=O)C(=O)N1 (stereo not shown) [B03],B03_logFC,"Degron-ID 6461, SEQ ID NO 4303, 46L_47A_49P_50I_52G_53F_54C_55C_67L_",2.215
same,B03_logFC,"Degron-ID 6475, SEQ ID NO 3714, 46L_47A_49P_50I_52G_53F_54S_55C_67L_",3.181
same,B03_logFC,"Degron-ID 6476, SEQ ID NO 3695, 46L_47A_49P_50I_52G_53F_54T_55C_67L_",3.232
same,B03_logFC,"Degron-ID 6479, SEQ ID NO 3928, 46L_47A_49P_50I_52G_53F_54Y_55C_67L",2.794
same,B03_logFC,"Degron-ID 6481, SEQ ID NO 4363, 46L_47C_49P_50I_52G_53F_54C_55C_67L_",2.101
same,B03_logFC,"Degron-ID 6490, SEQ ID NO 4424, 46L_47C_49P_50I_52G_53F_54M_55C_67L_",2.015
same,B03_logFC,"Degron-ID 6495, SEQ ID NO 3739, 46L_47C_49P_50I_52G_53F_54S_55C_67L_",3.147
same,B03_logFC,"Degron-ID 6499, SEQ ID NO 4251, 46L_47C_49P_50I_52G_53F_54Y_55C_67L_",2.295
same,B03_logFC,"Degron-ID 6543, SEQ ID NO 3877, 46L_47F_49P_50I_52G_53F_54E_55C_67L",2.888
same,B03_logFC,"Degron-ID 6546, SEQ ID NO 3645, 46L_47F_49P_50I_52G_53F_54H_55C_67L_",3.366
same,B03_logFC,"Degron-ID 6548, SEQ ID NO 3818, 46L_47F_49P_50I_52G_53F_54K_55C_67L_",2.978
same,B03_logFC,"Degron-ID 6550, SEQ ID NO 3942, 46L_47F_49P_50I_52G_53F_54M_55C_67L",2.773
same,B03_logFC,"Degron-ID 6551, SEQ ID NO 3784, 46L_47F_49P_50I_52G_53F_54N_55C_67L_",3.038
same,B03_logFC,"Degron-ID 6553, SEQ ID NO 3670, 46L_47F_49P_50I_52G_53F_54Q_55C_67L_",3.295
same,B03_logFC,"Degron-ID 6554, SEQ ID NO 3709, 46L_47F_49P_50I_52G_53F_54R_55C_67L_",3.202
same,B03_logFC,"Degron-ID 6557, SEQ ID NO 3809, 46L_47F_49P_50I_52G_53F_54V_55C_67L_",2.992
same,B03_logFC,"Degron-ID 6560, SEQ ID NO 4362, 46L_47G_49P_50I_52G_53F_54A_55C_67L_",2.101
same,B03_logFC,"Degron-ID 6561, SEQ ID NO 4408, 46L_47G_49P_50I_52G_53F_54C_55C_67L_",2.032
same,B03_logFC,"Degron-ID 6564, SEQ ID NO 4332, 46L_47G_49P_50I_52G_53F_54F_55C_67L_",2.155
same,B03_logFC,"Degron-ID 6574, SEQ ID NO 4400, 46L_47G_49P_50I_52G_53F_54R_55C_67L_",2.038
same,B03_logFC,"Degron-ID 6575, SEQ ID NO 4042, 46L_47G_49P_50I_52G_53F_54S_55C_67L",2.618
same,B03_logFC,"Degron-ID 6576, SEQ ID NO 3884, 46L_47G_49P_50I_52G_53F_54T_55C_67L",2.873
same,B03_logFC,"Degron-ID 6578, SEQ ID NO 4419, 46L_47G_49P_50I_52G_53F_54W_55C_67L_",2.018
same,B03_logFC,"Degron-ID 6580, SEQ ID NO 4036, 46L_47H_49P_50I_52G_53F_54A_55C_67L",2.628
same,B03_logFC,"Degron-ID 6585, SEQ ID NO 4397, 46L_47H_49P_50I_52G_53F_54G_55C_67L_",2.041
same,B03_logFC,"Degron-ID 6588, SEQ ID NO 4317, 46L_47H_49P_50I_52G_53F_54K_55C_67L_",2.179
same,B03_logFC,"Degron-ID 6591, SEQ ID NO 4396, 46L_47H_49P_50I_52G_53F_54N_55C_67L_",2.044
same,B03_logFC,"Degron-ID 6596, SEQ ID NO 3823, 46L_47H_49P_50I_52G_53F_54T_55C_67L_",2.967
same,B03_logFC,"Degron-ID 6599, SEQ ID NO 3918, 46L_47H_49P_50I_52G_53F_54Y_55C_67L",2.816
same,B03_logFC,"Degron-ID 6605, SEQ ID NO 3876, 46L_47I_49P_50I_52G_53F_54G_55C_67L",2.889
same,B03_logFC,"Degron-ID 6614, SEQ ID NO 4286, 46L_47I_49P_50I_52G_53F_54R_55C_67L_",2.241
same,B03_logFC,"Degron-ID 6615, SEQ ID NO 3770, 46L_47I_49P_50I_52G_53F_54S_55C_67L_",3.076
same,B03_logFC,"Degron-ID 6675, SEQ ID NO 3936, 46L_47M_49P_50I_52G_53F_54S_55C_67L",2.781
same,B03_logFC,"Degron-ID 6695, SEQ ID NO 4431, 46L_47N_49P_50I_52G_53F_54S_55C_67L_",2.008
same,B03_logFC,"Degron-ID 6700, SEQ ID NO 3828, 46L_47Q_49P_50I_52G_53F_54A_55C_67L_",2.958
same,B03_logFC,"Degron-ID 6701, SEQ ID NO 4278, 46L_47Q_49P_50I_52G_53F_54C_55C_67L_",2.248
same,B03_logFC,"Degron-ID 6705, SEQ ID NO 4381, 46L_47Q_49P_50I_52G_53F_54G_55C_67L_",2.067
same,B03_logFC,"Degron-ID 6707, SEQ ID NO 4302, 46L_47Q_49P_50I_52G_53F_54I_55C_67L_",2.216
same,B03_logFC,"Degron-ID 6710, SEQ ID NO 4336, 46L_47Q_49P_50I_52G_53F_54M_55C_67L_",2.149
same,B03_logFC,"Degron-ID 6717, SEQ ID NO 4329, 46L_47Q_49P_50I_52G_53F_54V_55C_67L_",2.156
same,B03_logFC,"Degron-ID 6720, SEQ ID NO 4341, 46L_47R_49P_50I_52G_53F_54A_55C_67L_",2.14
same,B03_logFC,"Degron-ID 6725, SEQ ID NO 4343, 46L_47R_49P_50I_52G_53F_54G_55C_67L_",2.137
same,B03_logFC,"Degron-ID 6740, SEQ ID NO 3861, 46L_47S_49P_50I_52G_53F_54A_55C_67L",2.907
